For some assays here: For at least one compound, name, drawing or mass did not settle the structure. Some entries share one result that the patent states for a list of compounds.
How the values were obtained:
C57BL/6J mice = assay: LPS-induced endotoxic shock in C57BL/6J mice: survival and signs of shock; format: in vivo, mouse; conditions: LPS-challenged mice; immobility, prostration, hypothermia, dyspnea
ERK1/2 MAPK, ELK1 = assay: ERK1/2 MAPK phosphorylation and Elk1 transactivation in FRTL-5 thyrocytes; format: cell-based, rat; conditions: FRTL-5 in 4H medium; 100 μg/ml poly (I:C) or 10 μM insulin
Description: Poly (I:C) (the dsRNA ligand commonly used as a test compound) activates the TLR3 mediated NF-κ β/Map kinase signal pathway in FRTL-5 thyrocytes. FRTL-5 cells were transiently transfected with 100 ng of luciferase reporter pNF-κB Luc and 2 ng of internal control phRL-Tk. After 36 h, cells were incubated with 100 μg/ml poly (I:C) or endotoxin-free E. coli DNA for 6 h. Measurements were made with the Dual Luciferase Assay System (Promega). Poly (I:C) increased TLR3 mediated NF-κB mediated luciferase activity (gene expression) 6 fold; dsDNA had no effect. Further support came from electrophoretic mobility shift analyses (EMSA). When FRTL-5 thyrocytes were incubated with 100 μg/ml poly (I:C), IL-1β, TNF-α or TPA, cells lysed after 1 h, and nuclear translocation of NF-κB measured. The poly (I:C) induced p50/p65 complex formation as measured by the presence of a specific new protein/DNA complex and its inhibition by anti-p50 and p65 antibodies, but not by anti-p52, c-rel and Rel B antibodies; the complex was also supershifted by anti-p50. […] Additionally, when FRTL-5 cells were co-transfected with pCMV-BD-Elk 1 and pFR-luc, then incubated with 100 μg/ml poly (I:C) or IL-1β for 6 hrs, ELK1 transactivation was increased 2-fold by both Poly (I:C) and IL-1β when measured with the Dual Luciferase Assay System (Promega). […]

In the case of `CNC[C@H](O)[C@@H](O)[C@H](O)[C@H](O)CO.Cc1c(Nc2ncccc2C(=O)O)cccc1C(F)(F)F` [flunixin of meglumine], the “Signs of shock measured at 12 hours (grade)” value (C57BL/6J mice) is reported as “++++”.
For Poly (I:C), the “increase of ERK1/2 MAPK protein levels (phosphorylation-specific antibody)” value (ERK1/2 MAPK, ELK1) was 2 to 4 fold.

Source: US9326972B2, “Use of phenylmethimazoles, methimazole derivatives, and tautomeric cyclic thiones for the treatment of autoimmune/inflammatory diseases associated with toll-like receptor overexpression” (Ohio University, priority 2004, dated 2016)
